{
  "source": "paper PMC12019163",
  "binders": {"B1": {"name": "Calnexin (protein, UniProt P35564 21-591)", "chain": "HDGHDDDAIDIEDDLDDVIEEVEDSKSKSDASTPPSPKVTYKAPVPTGEVYFADSFDRGSLSGWILSKAKKDDTDDEIAKYDGKWEVDEMKETKLPGDKGLVLMSRAKHHAISAKLNKPFLFDTKPLIVQYEVNFQNGIECGGAYVKLLSKTAELSLDQFHDKTPYTIMFGPDKCGEDYKLHFIFRHKNPKTGVYEEKHAKRPDADLKTYFTDKKTHLYTLILNPDNSFEILVDQSVVNSGNLLNDMTPPVNPSREIEDPEDRKPEDWDERPKIADPDAVKPDDWDEDAPSKIPDEEATKPEGWLDDEPEYIPDPDAEKPEDWDEDMDGEWEAPQIANPKCESAPGCGVWQRPMIDNPNYKGKWKPPMIDNPNYQGIWKPRKIPNPDFFEDLEPFKMTPFSAIGLELWSMTSDIFFDNFIISGDRRVVDDWANDGWGLKKAADGAAEPGVVLQMLEAAEERPWLWVVYILTVALPVFLVILFCCSGKKQSNAMEYKKTDAPQPDVKDEEGKEEEKNKRDEEEEEEKLEEKQKSDAEEDGVTGSQDEEDSKPKAEEDEILNRSPRNRKPRRE"}},
  "key": {"[1]": {"target": "GFP-tagged SH3KBP1 C-terminal part (human)", "assay": "co-IP; GFP-tagged SH3KBP1 constructs expressed in C2C12 cells; GFP trap assay on cell extracts; blots with anti-ERP72, anti-Calnexin (endogenous proteins) and anti-GFP"}, "[2]": {"target": "GFP-tagged coiled-coil domain of the C-terminus part of SH3KBP1 (human)", "assay": "co-IP; GFP-tagged SH3KBP1 constructs expressed in C2C12 cells; GFP trap assay on cell extracts; blots with anti-ERP72, anti-Calnexin (endogenous proteins) and anti-GFP"}},
  "note": "These are yes or no findings as the source states them, for the method shown. Binding seen in cells or lysates may run through a third protein. For some assays here: Binding can be weak; no strength is given.",
  "data": [
    {"binder": "B1", "values": [
      {"measurement": "binding", "setting": "[1]", "value": "binds"},
      {"measurement": "binding", "setting": "[2]", "value": "no binding"}
    ]}
  ]
}
